# Some of the results follow. The main result of the screen is listed elsewhere. These columns were measured beside it and carry no call. Compounds called inactive in the main read-out are mostly missing here. Words in brackets tell the shape of the fitted curve; partial curves, single points and poor fits give uncertain potencies.
# Assay: qHTS Assay for Lipid Storage Modulators in Drosophila S3 Cells;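 for cell number change: cells counted by Cell Tracker Red CMTPX staining in the red channel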
# Conditions: BODIPY lipid droplet fluorescence, 18-24 h; for cell number change: measured here: cell count max response, cells fed with added oleic acid
# In short: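 Drosophila S3 cells got compounds at several concentrations plus oleic acid (400 uM solution). Laser-scanning cytometry with 488 nm excitation read lipid droplets at 500-530 nm and cells at 575-640 nm. Percent activity was relative to 20 uM Triacsin C.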
# [1] = measured here: lipid fluorescence (Fed channel) AC50, cells fed with added oleic acid
# [2] = measured here: cell number channel AC50, cells fed with added oleic acid
Structure (SMILES),cell number change,AC50 [1],AC50 [2]
O=C(CCc1nc2ccccc2c(=O)[nH]1)NNC(=O)COc1cccc(F)c1,-4.29%,–,–
Cc1c(C(=O)N2CCN(C(c3ccccc3)c3ccccc3)CC2)oc2ccccc12,-27.6%,"0.00517 µM [falling, full curve, poor fit]",–
CS(=O)(=O)N(Cc1cc2ccccc2[nH]c1=O)C1CCCCC1,-13.7%,"1.46 µM [rising, single point]","0.58 µM [rising, full curve]"
Cc1ccc(OCC(=O)NC(C)c2ccccc2)c([N+](=O)[O-])n1 (stereo not drawn),49.6%,"6.51 µM [rising, partial curve, poor fit]","6.51 µM [rising, partial curve, poor fit]"
CCOc1ccc(-n2c(SCc3nc(-c4ccc(C)cc4)no3)nnc2-c2ccncc2)cc1,–,"6.51 µM [rising, single point]","6.51 µM [rising, partial curve, poor fit]"
CC(C)CCn1c(=O)c2c(nc3n2CCCN3Cc2ccccc2)n(C)c1=O,-5.63%,"29.1 µM [falling, single point]",–
COc1cc(CNn2cn[nH]c2=S)cc(Br)c1OCc1ccccc1F,1.96%,"1.41 µM [rising, partial curve]",–
COc1ccc(CNC(=O)N2CCc3ccccc3C2)cc1,4.17%,"6.51 µM [rising, single point]",–
COc1cc(CN2CCN(Cc3ccc(C)cc3)CC2)c([N+](=O)[O-])cc1OC,11.2%,"3.26 µM [rising, single point]",–
COCCNC(=O)c1cc(-c2ccc(-c3ccccc3)cc2)nc2ccccc12,-10.3%,"25.9 µM [rising, single point]",–
CCOC(=O)/C=C/COc1ccccc1[N+](=O)[O-],27.7%,–,"3.26 µM [falling, single point]"
O=S(=O)(Nc1nc2ccccc2nc1-[n+]1ccccc1)c1ccc(Cl)cc1,24.8%,"0.00517 µM [falling, full curve, poor fit]",–
COc1ccccc1-n1cnnc1SCC(=O)c1cc(C)n(Cc2cccs2)c1C,-16.1%,"0.116 µM [falling, single point]",–
COC(=O)c1sc(-c2ccccc2)cc1NC(C)=O,45.7%,–,"29.1 µM [rising, single point]"
COC(=O)c1c(-c2ccc(OC)cc2)sc2cc3c(cc12)OCO3,-19.3%,–,"0.58 µM [falling, partial curve]"
CCN1CCN(C(=S)Nc2ccc3nc4n(c(=O)c3c2)CCCCC4)CC1,28.3%,"2.59 µM [rising, full curve, poor fit]",–

# Exported with tabs: part of the list above.
Structure (SMILES)	cell number change	AC50 [1]	AC50 [2]
Cc1ccc(OCC(=O)NC(C)c2ccccc2)c([N+](=O)[O-])n1 (stereo not drawn)	49.6%	6.51 µM [rising, partial curve, poor fit]	6.51 µM [rising, partial curve, poor fit]
CCOc1ccc(-n2c(SCc3nc(-c4ccc(C)cc4)no3)nnc2-c2ccncc2)cc1	–	6.51 µM [rising, single point]	6.51 µM [rising, partial curve, poor fit]
